Measurements reported in patent US9938322B2 (priority 2013, dated 2018).
Strings that start with PEPTIDE1 are HELM notation: dots part the residues, brackets hold end groups and non-standard residues.

Test: general procedure: Fmoc solid-phase peptide synthesis; preloaded Fmoc-amino acid 2-chlorotrityl resins
Conditions: whole synthesis, scale of the general procedure approximately 80 mg resin per vessel

Row | Substance | purity (crude or final not stated)
1 | PEPTIDE1{W.S.[tBuGly].[Dab].[Orn].[D-Dab].[Dab].W.[Dab].[tBuGly].A.S.[dP].P}$PEPTIDE1,PEPTIDE1,1:R1-14:R2$$$V2.0 | 86%
2 | PEPTIDE1{W.[Dap(2,3-OHpropionyl)].[Cha].[Dab].[Orn].[DDab].[Dab].W.[Dab].[tBuGly].A.S.[dP].P}$PEPTIDE1,PEPTIDE1,1:R1-14:R2$$$V2.0 | 92%
3 | PEPTIDE1{W.[Dap(AcThr)].[Cha].[Dab].[Orn].[DDab].[Dab].W.[Dab].[tBuGly].A.S.[dP].P}$PEPTIDE1,PEPTIDE1,1:R1-14:R2$$$V2.0 | 92%
4 | PEPTIDE1{W.[Dap(Thr)].[Cha].[Dab].[Orn].[DDab].[Dab].W.[Dab].[tBuGly].A.S.[dP].P}$PEPTIDE1,PEPTIDE1,1:R1-14:R2$$$V2.0 | 96%
5 | PEPTIDE1{W.[Dap].W.[Dab].[Orn].[D-Dab].[Dab].W.[Dab].[tBuGly].A.S.[dP].P}$PEPTIDE1,PEPTIDE1,1:R1-14:R2$$$V2.0 | 91%
6 | PEPTIDE1{W.[Dap].[Cha].[Dab(2PyrMe)].[Orn].[DDab].[Dab].W.[Dab].[tBuGly].A.S.[dP].P}$PEPTIDE1,PEPTIDE1,1:R1-14:R2$$$V2.0 | 91%
7 | PEPTIDE1{W.[Dap].[Cha].[Dab].[Orn].[D-Dab].[Dab].W.[Dab].[tBuGly].A.S.[dP].[Pic]}$PEPTIDE1,PEPTIDE1,1:R1-14:R2$$$V2.0 | 94%
8 | PEPTIDE1{W.[Dap].[Cha].[Dab].[Orn].[D-Dab].[Dab].W.[Dab].[tBuGly].A.S.[dP].[Tic(7OH)]}$PEPTIDE1,PEPTIDE1,1:R1-14:R2$$$V2.0 | 91%
9 | PEPTIDE1{W.[Dap].[Cha].[Dab].[Orn].[DDab].[Dab].W.[Dab].[tBuGly].A.S.[dP].P}$PEPTIDE1,PEPTIDE1,1:R1-14:R2$$$V2.0 | 95%
10 | PEPTIDE1{W.[Dap].[Cha].[Dab].[Orn].[DDab].[Dab].W.[Dab].[tBuGly].[Ser(Me)].S.[dP].P}$PEPTIDE1,PEPTIDE1,1:R1-14:R2$$$V2.0 | 97%
11 | PEPTIDE1{W.[Hse].[Cha].[Dab].[Orn].[DDab].[Dab].W.[Dab].[tBuGly].A.S.[dP].P}$PEPTIDE1,PEPTIDE1,1:R1-14:R2$$$V2.0 | 95%
12 | PEPTIDE1{W.[Ser(Me)].[Cha].[Dab].[Orn].[DDab].[Dab].W.[Dab].[tBuGly].A.S.[dP].P}$PEPTIDE1,PEPTIDE1,1:R1-14:R2$$$V2.0 | 93%
13 | PEPTIDE1{Y.S.Y.[Dab].[Orn].[D-Dab].[Dab].W.[Dab].[Chg].A.S.[dP].P}$PEPTIDE1,PEPTIDE1,1:R1-14:R2$$$V2.0 | 95%
14 | PEPTIDE1{Y.S.Y.[Dab].[Orn].[DDab].[Dab].W.[Dab].[tBuGly].A.S.[dP].P}$PEPTIDE1,PEPTIDE1,1:R1-14:R2$$$V2.0 | 86%
15 | PEPTIDE1{Y.S.Y.[Dab].[Orn].[DDab].[Dab].W.[Dab].[tBuGly].A.Y.[dP].P}$PEPTIDE1,PEPTIDE1,1:R1-14:R2$$$V2.0 | 95%
16 | PEPTIDE1{Y.S.[tBuGly].[Dab].[Orn].[D-Dab].[Dab].W.[Dab].[Cha].A.S.[dP].P}$PEPTIDE1,PEPTIDE1,1:R1-14:R2$$$V2.0 | 92%
17 | PEPTIDE1{Y.S.[tBuGly].[Dab].[Orn].[D-Dab].[Dab].W.[Dab].[Chg].A.S.[dP].P}$PEPTIDE1,PEPTIDE1,1:R1-14:R2$$$V2.0 | 93%
18 | PEPTIDE1{[Nva].A.Y.[Dab].[Dab].[DDab].[Dab].W.[Dab].[Chg].S.T.[dP].P}$PEPTIDE1,PEPTIDE1,1:R1-14:R2$$$V2.0 | 93%

Row | Substance | purity (crude or final not stated)
19 | PEPTIDE1{[Nva].A.Y.[Dab].[Orn].[D-Dab].[Dab].W.[Dab].[tBuGly].A.S.[dP].P}$PEPTIDE1,PEPTIDE1,1:R1-14:R2$$$V2.0 | 85%
20 | PEPTIDE1{[Nva].A.[Cha].[Dab].[Orn].[DDab].[Dab].W.[Dab].[Chg].A.S.[dP].P}$PEPTIDE1,PEPTIDE1,1:R1-14:R2$$$V2.0 | 93%
21 | PEPTIDE1{[Nva].S.W.[Dab].[Orn].[D-Dab].[Dab].W.[Dab].[tBuGly].A.S.[dP].P}$PEPTIDE1,PEPTIDE1,1:R1-14:R2$$$V2.0 | 92%
22 | PEPTIDE1{[Nva].S.Y.[Dab].[Orn].[D-Dab].[Dab].W.[Dab].[tBuGly].A.S.[dP].P}$PEPTIDE1,PEPTIDE1,1:R1-14:R2$$$V2.0 | 90%
23 | PEPTIDE1{[Nva].S.Y.[Dab].[Orn].[D-Dab].[Dab].W.[Dab].[tBuGly].S.S.[dP].P}$PEPTIDE1,PEPTIDE1,1:R1-14:R2$$$V2.0 | 75%
24 | PEPTIDE1{[Nva].S.Y.[Dab].[Orn].[DDab].[Dab].W.[Dab].[Cha].A.S.[dP].P}$PEPTIDE1,PEPTIDE1,1:R1-14:R2$$$V2.0 | 95%
25 | PEPTIDE1{[Nva].S.Y.[Dab].[Orn].[DDab].[Dab].W.[Dab].[Chg].A.S.[dP].P}$PEPTIDE1,PEPTIDE1,1:R1-14:R2$$$V2.0 | 79%
26 | PEPTIDE1{[Nva].S.[Cha].[Dab].[Orn].[DDab].[Dab].W.[Dab].[Chg].A.S.[dP].P}$PEPTIDE1,PEPTIDE1,1:R1-14:R2$$$V2.0 | 94%
27 | PEPTIDE1{[Nva].S.[Cha].[Dab].[Orn].[DDab].[Dab].W.[Dab].[tBuGly].S.S.[dP].P}$PEPTIDE1,PEPTIDE1,1:R1-14:R2$$$V2.0 | 83%
28 | PEPTIDE1{[Nva].S.[Phe(4CF3)].[Dab].[Orn].[DDab].[Dab].W.[Dab].[tBuGly].A.S.[dP].P}$PEPTIDE1,PEPTIDE1,1:R1-14:R2$$$V2.0 | 88%
29 | PEPTIDE1{[Nva].S.[Phe(4F)].[Dab].[Orn].[D-Dab].[Dab].W.[Dab].[tBuGly].A.S.[dP].P}$PEPTIDE1,PEPTIDE1,1:R1-14:R2$$$V2.0 | 90%
30 | PEPTIDE1{[Nva].S.[Tyr(3F)].[Dab].[Orn].[DDab].[Dab].W.[Dab].[tBuGly].A.S.[dP].P}$PEPTIDE1,PEPTIDE1,1:R1-14:R2$$$V2.0 | 92%
31 | PEPTIDE1{[Nva].S.[tBuGly].[Dab].K.[DDab].[Dab].W.[Dab].[Cha].A.S.[dP].P}$PEPTIDE1,PEPTIDE1,1:R1-14:R2$$$V2.0 | 88%
32 | PEPTIDE1{[Nva].S.[tBuGly].[Dab].[Orn].[DDab].[Dab].W.[Dab].[Cha].A.S.[dP].P}$PEPTIDE1,PEPTIDE1,1:R1-14:R2$$$V2.0 | 95%
33 | PEPTIDE1{[Nva].S.[tBuGly].[Dab].[Orn].[DDab].[Dab].W.[Dab].[Chg].A.S.[dP].P}$PEPTIDE1,PEPTIDE1,1:R1-14:R2$$$V2.0 | 91%
34 | Trp-Ala(3PyrMeUr)-Cha-Dab-Orn-^DDab-Dab-Trp-Dab-tBuGly-Ala-Ser-^DPro-Pro | 92%
35 | Trp-Ala(iPrUr)-Cha-Dab-Orn-^DDab-Dab-Trp-Dab-tBuGly-Ala-Ser-^DPro-Pro | 94%
36 | Trp-Ala-Cha-Dab-Orn-Dab-Dab-Trp-Dab-tBuGly-Ala-Ser-^DPro-Pro((4S)OBn) | 98%
